PubChem BioAssay AID743456, Peter MacCallum Cancer Centre, 2014

- Test: 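Mimic library tested for viability and apoptosis changes under vorinostat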 (primary screen)
- System: human HCT116-VR colon cancer cells, a vorinostat-resistant HCT116 line
- Reagent: miRNA mimic
- Duration: about 3 days from transfection to readout; drug present for the last 24 h
- Conditions: vorinostat at 2.5 µM final for 24 h
- Measurement: 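Per-well live-cell protease fluorescence and caspase luminescence under 2.5 µM vorinostat for 24 h, scored as robust z-scores and against mock transfection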
- Scale: viability robust z-score: higher = more viable cells; caspase robust z-score: higher = more caspase activity, more apoptosis
- Active means: 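a mimic counts as active if it lands in a lowered-viability class or a caspase-activation class; wells with too few cells without drug are left out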
The deposit covers 878 reagents; shown is a part drawn at random. 27 of all reagents (3.1%) were called active. 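27 mimics are marked active, unlike an earlier stated count of 24; the viability threshold is described inconsistently.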 Not all columns of the deposit are shown. Reagent sequences are not shown. Not stated in the record: the amount of reagent.

hsa-miR-19b-2* → viability robust z-score = -0.72; caspase robust z-score = 0.32; viability hit class = no change; caspase hit class = no change; Outcome = inactive
hsa-miR-1 → viability robust z-score = 0.44; caspase robust z-score = -0.38; viability hit class = no change; caspase hit class = no change; Outcome = inactive
hsa-miR-30b* → viability robust z-score = -1.18; caspase robust z-score = 2.27; viability hit class = no change; caspase hit class = no change; Outcome = inactive
hsa-miR-590-5p → viability robust z-score = 0.37; caspase robust z-score = -0.66; viability hit class = no change; caspase hit class = no change; Outcome = inactive
hsa-miR-892b → viability robust z-score = -2.65; caspase robust z-score = 2.94; viability hit class = no change; caspase hit class = no change; Outcome = inactive
hsa-miR-140-3p → viability robust z-score = 0.02; caspase robust z-score = -0.64; viability hit class = no change; caspase hit class = no change; Outcome = inactive
hsa-miR-490-5p → viability robust z-score = -0.18; caspase robust z-score = -0.84; viability hit class = no change; caspase hit class = no change; Outcome = inactive
hsa-miR-218-2* → viability robust z-score = -0.57; caspase robust z-score = 0.82; viability hit class = no change; caspase hit class = no change; Outcome = inactive
hsa-miR-519e → viability robust z-score = -0.17; caspase robust z-score = 2.97; viability hit class = no change; caspase hit class = no change; Outcome = inactive
hsa-miR-152 → viability robust z-score = 0.74; caspase robust z-score = 0.03; viability hit class = no change; caspase hit class = no change; Outcome = inactive
hsa-miR-1271 → viability robust z-score = -1.7; caspase robust z-score = 2.64; viability hit class = no change; caspase hit class = no change; Outcome = inactive
hsa-miR-202 → viability robust z-score = 0.76; caspase robust z-score = 2.15; viability hit class = no change; caspase hit class = no change; Outcome = inactive
hsa-miR-1321 → viability robust z-score = -0.87; caspase robust z-score = 3.29; viability hit class = no change; caspase hit class = no change; Outcome = inactive
hsa-miR-595 → viability robust z-score = 1.02; caspase robust z-score = 0.31; viability hit class = no change; caspase hit class = no change; Outcome = inactive
hsa-miR-431 → viability robust z-score = 0.12; caspase robust z-score = 0.99; viability hit class = no change; caspase hit class = no change; Outcome = inactive
hsa-miR-583 → viability robust z-score = 0.91; caspase robust z-score = -0.44; viability hit class = no change; caspase hit class = no change; Outcome = inactive
hsa-miR-34b → viability robust z-score = -0.31; caspase robust z-score = -0.42; viability hit class = no change; caspase hit class = no change; Outcome = inactive
hsa-miR-498 → viability robust z-score = 0.01; caspase robust z-score = 0.88; viability hit class = no change; caspase hit class = no change; Outcome = inactive

Part of the list above, reformatted:
microRNA,viability robust z-score,caspase robust z-score,viability hit class,caspase hit class,Outcome
hsa-miR-19b-2*,-0.72,0.32,no change,no change,inactive
hsa-miR-1,0.44,-0.38,no change,no change,inactive
hsa-miR-30b*,-1.18,2.27,no change,no change,inactive
